In patent US5212157A (Bio-Mega, Inc., priority 1989, dated 1993):

Assay: general procedure: solution-phase peptide synthesis; BOP
Details: HCl

Row | Substance | step yield (coupling step) | step yield (late stage modification step)
1 | Boc-THIQ-Ala-ACHPA-Leu-Phe-NH2 | 77% | 
2 | Boc-THIQ-Val-ACHPA-Ala-Phe-NH2 | 38% | 
3 | THIQ-Ala-ACHPA-Leu-Phe-NH2.HCl |  | 93%
4 | Boc-Phe.psi.[CH2 NH]Leu-Leu-Phe-NH2 | 56% | 
5 | THIQ-Val-ACHPA-Asp-Phe-NH2.HCl |  | 49%
6 | THIQ-Val-ACHPA-Ala-Phe-NH2.HCl |  | 51%
7 | Boc-Ala-ACHPA-Leu-Phe-NH2 | 79% | 
8 | Boc-THIQ-Ala-ACHPA-Leu-Phe-OH |  | 66%
